The subject of this assay is MCF-7. Briefly: MTT anti-proliferative assay, MCF-7. Format: cell-based. The settings on record: Homo sapiens, MCF7, read-out: IC50 MCF-7.

Consider 1 compound from PMC7889231 (Journal of Enzyme Inhibition and Medicinal Chemistry, 2021).

As a reminder, the IC50 is the concentration at which inhibition is half-maximal.

As to `COc1cc2c(c(OC)c1OC)-c1ccc(OC)c(=O)cc1[C@@H](NC(C)=O)CC2` [Colchicine, reference compound], the 50% inhibitory concentration (IC50) was 10.4 ± 0.3 µM.
